Results published in the supplement of paper PMC12823440, “Inhibitors supercharge kinase turnover through native proteolytic circuits” (Nature, 2025).
Counter-ions that a name gives are not always drawn. The list shows a part of the results. Hit calls seldom repeat between salt and free forms of one compound.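 Kinases were expressed as nanoluciferase fusions in K562 cells and luminescence was read every 4 h between 2 and 18 h as percent of control, DMSO set to 100% and a positive control to 0%. A time point counts as decreased when the signal drops significantly (2 sigma). The hit call is the authors' own, does not follow from the count of time points alone, and its rule is not shown.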

Sequences of proteins named here, by UniProt entry; tags and fusion partners are left off. A change or cut given only in a name is not applied to a line headed by its entry.
UniProt P07949, whole entry, looked up: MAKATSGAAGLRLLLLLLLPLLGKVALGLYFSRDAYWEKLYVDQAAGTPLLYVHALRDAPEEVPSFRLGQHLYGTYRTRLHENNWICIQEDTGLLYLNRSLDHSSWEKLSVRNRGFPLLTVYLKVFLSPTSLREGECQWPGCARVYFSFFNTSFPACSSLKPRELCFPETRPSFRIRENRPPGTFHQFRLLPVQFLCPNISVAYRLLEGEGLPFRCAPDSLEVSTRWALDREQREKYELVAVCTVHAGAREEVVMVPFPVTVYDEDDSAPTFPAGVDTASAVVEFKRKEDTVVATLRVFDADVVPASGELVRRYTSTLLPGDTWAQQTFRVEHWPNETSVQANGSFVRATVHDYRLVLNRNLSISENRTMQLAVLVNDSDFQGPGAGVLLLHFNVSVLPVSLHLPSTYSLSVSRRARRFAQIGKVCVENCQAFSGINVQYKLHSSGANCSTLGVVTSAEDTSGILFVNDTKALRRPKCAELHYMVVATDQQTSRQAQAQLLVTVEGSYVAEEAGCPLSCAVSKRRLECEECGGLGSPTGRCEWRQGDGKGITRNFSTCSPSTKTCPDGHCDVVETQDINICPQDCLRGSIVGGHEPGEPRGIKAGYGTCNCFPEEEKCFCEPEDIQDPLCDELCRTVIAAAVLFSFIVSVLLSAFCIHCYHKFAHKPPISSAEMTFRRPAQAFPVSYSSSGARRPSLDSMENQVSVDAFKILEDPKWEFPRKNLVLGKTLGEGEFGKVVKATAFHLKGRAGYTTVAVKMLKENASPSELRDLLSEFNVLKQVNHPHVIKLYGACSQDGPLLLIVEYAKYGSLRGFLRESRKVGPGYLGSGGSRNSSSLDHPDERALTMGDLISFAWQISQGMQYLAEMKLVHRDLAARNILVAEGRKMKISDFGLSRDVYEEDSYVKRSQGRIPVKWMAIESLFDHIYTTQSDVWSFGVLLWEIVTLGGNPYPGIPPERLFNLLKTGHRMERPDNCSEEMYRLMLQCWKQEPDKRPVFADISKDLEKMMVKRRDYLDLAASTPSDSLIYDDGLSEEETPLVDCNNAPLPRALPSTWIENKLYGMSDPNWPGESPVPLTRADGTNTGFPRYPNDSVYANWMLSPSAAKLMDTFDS
UniProt P07949, whole entry M918T, looked up: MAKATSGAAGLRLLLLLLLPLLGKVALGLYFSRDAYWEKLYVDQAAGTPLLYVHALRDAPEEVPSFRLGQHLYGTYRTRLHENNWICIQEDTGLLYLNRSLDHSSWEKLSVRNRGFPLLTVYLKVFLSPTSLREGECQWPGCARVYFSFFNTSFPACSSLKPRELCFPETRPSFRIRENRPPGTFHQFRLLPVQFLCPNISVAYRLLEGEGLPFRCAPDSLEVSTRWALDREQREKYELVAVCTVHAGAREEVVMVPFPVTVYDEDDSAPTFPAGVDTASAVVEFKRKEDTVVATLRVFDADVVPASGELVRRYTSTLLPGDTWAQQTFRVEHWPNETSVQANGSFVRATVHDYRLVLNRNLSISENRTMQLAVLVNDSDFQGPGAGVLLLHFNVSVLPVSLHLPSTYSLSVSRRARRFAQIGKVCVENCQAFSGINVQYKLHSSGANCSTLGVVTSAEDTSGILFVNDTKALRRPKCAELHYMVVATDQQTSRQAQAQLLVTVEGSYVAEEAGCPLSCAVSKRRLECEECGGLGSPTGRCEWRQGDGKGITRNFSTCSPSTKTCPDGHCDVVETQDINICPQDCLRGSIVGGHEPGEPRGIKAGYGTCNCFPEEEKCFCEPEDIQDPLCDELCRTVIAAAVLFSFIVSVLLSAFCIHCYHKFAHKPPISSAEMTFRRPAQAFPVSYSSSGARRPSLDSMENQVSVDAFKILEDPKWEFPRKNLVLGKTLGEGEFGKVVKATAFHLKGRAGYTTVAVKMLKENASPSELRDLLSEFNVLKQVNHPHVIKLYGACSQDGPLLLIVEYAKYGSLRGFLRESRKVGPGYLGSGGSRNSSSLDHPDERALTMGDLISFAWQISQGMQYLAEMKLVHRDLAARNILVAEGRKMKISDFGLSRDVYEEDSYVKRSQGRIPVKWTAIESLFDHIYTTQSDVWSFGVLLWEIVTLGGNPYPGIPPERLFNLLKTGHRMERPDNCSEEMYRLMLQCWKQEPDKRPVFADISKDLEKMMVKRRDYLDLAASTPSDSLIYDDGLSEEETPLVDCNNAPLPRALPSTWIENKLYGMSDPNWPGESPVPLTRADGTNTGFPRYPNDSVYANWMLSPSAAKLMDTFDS
UniProt Q9BRS2: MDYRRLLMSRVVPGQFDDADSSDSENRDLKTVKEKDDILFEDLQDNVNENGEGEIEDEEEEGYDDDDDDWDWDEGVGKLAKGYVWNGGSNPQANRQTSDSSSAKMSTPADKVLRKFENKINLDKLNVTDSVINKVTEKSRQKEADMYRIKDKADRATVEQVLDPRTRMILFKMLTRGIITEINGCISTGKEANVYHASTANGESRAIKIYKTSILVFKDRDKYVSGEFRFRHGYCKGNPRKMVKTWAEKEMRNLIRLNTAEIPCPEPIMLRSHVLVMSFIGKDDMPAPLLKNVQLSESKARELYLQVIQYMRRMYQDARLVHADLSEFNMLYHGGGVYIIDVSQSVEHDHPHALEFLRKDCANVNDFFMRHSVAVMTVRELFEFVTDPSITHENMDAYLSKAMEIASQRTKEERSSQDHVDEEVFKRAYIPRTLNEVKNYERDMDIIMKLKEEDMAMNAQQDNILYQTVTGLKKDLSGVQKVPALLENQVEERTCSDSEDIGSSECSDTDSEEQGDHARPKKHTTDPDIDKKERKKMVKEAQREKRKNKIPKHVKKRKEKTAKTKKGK
UniProt Q13546: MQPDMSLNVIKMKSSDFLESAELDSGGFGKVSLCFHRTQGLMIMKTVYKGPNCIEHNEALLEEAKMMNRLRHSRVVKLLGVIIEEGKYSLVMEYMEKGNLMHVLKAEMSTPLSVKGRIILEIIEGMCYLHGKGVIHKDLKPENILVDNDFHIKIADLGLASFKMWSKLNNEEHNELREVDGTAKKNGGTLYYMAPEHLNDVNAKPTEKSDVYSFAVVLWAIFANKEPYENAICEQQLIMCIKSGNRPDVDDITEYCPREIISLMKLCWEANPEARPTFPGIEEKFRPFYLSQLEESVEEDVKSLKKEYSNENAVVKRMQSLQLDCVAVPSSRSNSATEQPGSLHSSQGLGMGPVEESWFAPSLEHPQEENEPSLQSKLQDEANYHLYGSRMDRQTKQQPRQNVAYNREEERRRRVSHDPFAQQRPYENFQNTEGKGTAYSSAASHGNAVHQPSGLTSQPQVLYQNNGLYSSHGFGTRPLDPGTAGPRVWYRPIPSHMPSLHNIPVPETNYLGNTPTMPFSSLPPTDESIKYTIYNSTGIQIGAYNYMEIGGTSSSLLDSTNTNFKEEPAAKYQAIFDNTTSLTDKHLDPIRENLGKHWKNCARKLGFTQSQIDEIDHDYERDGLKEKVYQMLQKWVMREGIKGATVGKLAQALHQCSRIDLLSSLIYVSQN
UniProt Q01974, whole entry: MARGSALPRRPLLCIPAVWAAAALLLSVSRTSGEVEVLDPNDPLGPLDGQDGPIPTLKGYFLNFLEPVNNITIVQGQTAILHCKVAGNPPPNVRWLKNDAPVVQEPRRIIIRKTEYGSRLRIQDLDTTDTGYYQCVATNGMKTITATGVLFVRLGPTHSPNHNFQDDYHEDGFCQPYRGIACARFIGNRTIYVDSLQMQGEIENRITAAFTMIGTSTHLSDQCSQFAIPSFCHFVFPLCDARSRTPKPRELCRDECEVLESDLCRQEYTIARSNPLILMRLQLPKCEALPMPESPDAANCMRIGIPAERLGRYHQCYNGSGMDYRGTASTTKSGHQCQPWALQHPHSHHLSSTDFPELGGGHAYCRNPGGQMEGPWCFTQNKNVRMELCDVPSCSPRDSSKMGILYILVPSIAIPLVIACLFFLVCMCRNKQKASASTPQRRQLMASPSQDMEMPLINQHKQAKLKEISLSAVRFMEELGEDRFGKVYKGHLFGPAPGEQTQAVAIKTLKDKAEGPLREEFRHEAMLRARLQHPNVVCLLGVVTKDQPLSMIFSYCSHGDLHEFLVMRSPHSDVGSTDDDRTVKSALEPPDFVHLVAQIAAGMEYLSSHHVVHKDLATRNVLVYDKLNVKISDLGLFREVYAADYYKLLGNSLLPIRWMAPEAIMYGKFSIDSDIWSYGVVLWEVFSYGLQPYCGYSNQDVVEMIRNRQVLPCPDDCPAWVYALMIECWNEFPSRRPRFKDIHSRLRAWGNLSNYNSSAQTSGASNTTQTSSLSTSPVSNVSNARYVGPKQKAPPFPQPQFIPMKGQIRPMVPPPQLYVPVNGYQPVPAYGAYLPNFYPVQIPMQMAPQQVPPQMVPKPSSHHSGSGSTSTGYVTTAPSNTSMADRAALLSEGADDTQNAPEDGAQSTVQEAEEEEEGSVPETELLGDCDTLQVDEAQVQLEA
UniProt Q9NYA1, whole entry: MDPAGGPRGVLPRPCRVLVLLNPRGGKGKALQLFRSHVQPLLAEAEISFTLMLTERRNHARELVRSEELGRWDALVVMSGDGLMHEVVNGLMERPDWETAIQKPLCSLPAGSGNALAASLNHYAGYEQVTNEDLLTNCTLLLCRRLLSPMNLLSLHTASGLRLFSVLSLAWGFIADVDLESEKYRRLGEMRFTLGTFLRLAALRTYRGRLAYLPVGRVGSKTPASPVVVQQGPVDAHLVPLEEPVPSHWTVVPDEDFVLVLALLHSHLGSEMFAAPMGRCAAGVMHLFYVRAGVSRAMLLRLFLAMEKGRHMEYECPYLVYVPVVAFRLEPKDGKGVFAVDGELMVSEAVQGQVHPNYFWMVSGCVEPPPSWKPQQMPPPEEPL
UniProt P29597: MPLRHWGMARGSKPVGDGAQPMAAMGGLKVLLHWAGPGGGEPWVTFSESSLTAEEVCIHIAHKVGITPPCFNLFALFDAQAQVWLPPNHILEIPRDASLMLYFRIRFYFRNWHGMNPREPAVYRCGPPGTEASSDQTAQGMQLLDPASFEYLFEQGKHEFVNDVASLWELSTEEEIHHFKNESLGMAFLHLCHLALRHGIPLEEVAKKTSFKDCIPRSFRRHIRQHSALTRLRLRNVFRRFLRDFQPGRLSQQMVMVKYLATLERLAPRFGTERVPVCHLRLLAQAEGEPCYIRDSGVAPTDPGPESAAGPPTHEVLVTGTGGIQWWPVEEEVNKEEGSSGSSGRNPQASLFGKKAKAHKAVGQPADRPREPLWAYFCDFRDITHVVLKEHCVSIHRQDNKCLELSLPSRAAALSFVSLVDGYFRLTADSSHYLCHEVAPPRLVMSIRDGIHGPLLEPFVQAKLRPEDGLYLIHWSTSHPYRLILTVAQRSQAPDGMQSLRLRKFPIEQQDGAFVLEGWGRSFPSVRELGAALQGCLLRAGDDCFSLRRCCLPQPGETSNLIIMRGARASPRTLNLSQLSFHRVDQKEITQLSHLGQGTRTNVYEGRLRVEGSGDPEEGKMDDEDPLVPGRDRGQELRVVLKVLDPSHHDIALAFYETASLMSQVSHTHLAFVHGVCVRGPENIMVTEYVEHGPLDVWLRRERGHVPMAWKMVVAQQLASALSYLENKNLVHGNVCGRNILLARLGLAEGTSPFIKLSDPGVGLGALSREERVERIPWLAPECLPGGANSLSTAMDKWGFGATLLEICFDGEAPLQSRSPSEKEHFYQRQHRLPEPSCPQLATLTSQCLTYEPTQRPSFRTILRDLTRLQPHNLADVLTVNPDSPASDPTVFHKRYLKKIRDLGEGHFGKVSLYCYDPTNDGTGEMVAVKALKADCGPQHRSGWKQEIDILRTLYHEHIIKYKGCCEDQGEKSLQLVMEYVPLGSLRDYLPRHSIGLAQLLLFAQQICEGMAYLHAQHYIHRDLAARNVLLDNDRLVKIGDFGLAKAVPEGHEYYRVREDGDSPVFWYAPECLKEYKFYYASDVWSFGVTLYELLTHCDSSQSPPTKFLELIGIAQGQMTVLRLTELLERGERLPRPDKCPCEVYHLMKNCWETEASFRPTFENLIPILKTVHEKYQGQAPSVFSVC
UniProt Q6PHR2: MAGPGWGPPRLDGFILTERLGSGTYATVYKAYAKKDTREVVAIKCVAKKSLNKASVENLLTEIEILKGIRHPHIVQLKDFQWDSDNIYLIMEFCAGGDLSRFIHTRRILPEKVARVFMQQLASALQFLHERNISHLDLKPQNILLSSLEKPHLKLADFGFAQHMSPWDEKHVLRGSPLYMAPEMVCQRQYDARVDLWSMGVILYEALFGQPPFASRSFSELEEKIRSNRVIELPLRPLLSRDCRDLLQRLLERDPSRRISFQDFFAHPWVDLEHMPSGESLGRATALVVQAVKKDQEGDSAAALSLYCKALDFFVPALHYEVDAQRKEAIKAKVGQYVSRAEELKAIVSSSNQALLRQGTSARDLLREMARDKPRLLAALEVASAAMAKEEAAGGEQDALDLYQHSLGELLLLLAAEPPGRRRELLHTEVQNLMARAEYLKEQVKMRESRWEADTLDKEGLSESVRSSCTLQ

Columns and labels:
Conditions in all cases: K562; 2-18 h
RET = RET (UniProt P07949); experiment: kinase-Nluc reporter destabilization hit call (1 = scored as downregulated) (binary); higher = compound decreases kinase abundance
[1] = biological target: RET_M918T (clone: RET_mut) (UniProt P07949); experiment: as above
RIOK1 = RIOK1 (UniProt Q9BRS2); experiment: as above
RIPK1 = RIPK1 (UniProt Q13546); experiment: as above
RIPK2 = RIPK2 (UniProt O43353); experiment: as above
ROR2 = ROR2 (UniProt Q01974); experiment: as above
RPS6KA1 = RPS6KA1 (UniProt Q15418); experiment: as above
SPHK1 = SPHK1 (UniProt Q9NYA1); experiment: as above
SRC = SRC (UniProt P12931); experiment: as above
STK24 = STK24 (UniProt Q9Y6E0); experiment: as above
STK38 = STK38 (UniProt Q15208); experiment: as above
SYK = SYK (UniProt P43405); experiment: as above
TEC = TEC (UniProt P42680); experiment: as above
TYK2 = TYK2 (UniProt P29597); experiment: as above
ULK3 = ULK3 (UniProt Q6PHR2); experiment: as above
YES1 = YES1 (UniProt P07947); experiment: as above
ZAK = ZAK (UniProt Q9NYL2); experiment: as above
ZAP70 = ZAP70 (UniProt P43403); experiment: as above
ABL1 = ABL1 (UniProt P00519); experiment: number of time points (of 5) at which kinase-Nluc abundance scored as decreased, DMSO-normalised (count); higher = more persistent destabilization
AKT1 = AKT1 (UniProt P31749); experiment: as above

SMILES	kinase-Nluc reporter destabilization hit call (RET)	kinase-Nluc reporter destabilization hit call [1]	kinase-Nluc reporter destabilization hit call (RIOK1)	kinase-Nluc reporter destabilization hit call (RIPK1)	kinase-Nluc reporter destabilization hit call (RIPK2)	kinase-Nluc reporter destabilization hit call (ROR2)	kinase-Nluc reporter destabilization hit call (RPS6KA1)	kinase-Nluc reporter destabilization hit call (SPHK1)	kinase-Nluc reporter destabilization hit call (SRC)	kinase-Nluc reporter destabilization hit call (STK24)	kinase-Nluc reporter destabilization hit call (STK38)	kinase-Nluc reporter destabilization hit call (SYK)	kinase-Nluc reporter destabilization hit call (TEC)	kinase-Nluc reporter destabilization hit call (TYK2)	kinase-Nluc reporter destabilization hit call (ULK3)	kinase-Nluc reporter destabilization hit call (YES1)	kinase-Nluc reporter destabilization hit call (ZAK)	kinase-Nluc reporter destabilization hit call (ZAP70)	number of time points (ABL1)	number of time points (AKT1)
Cc1ccc2nc(NCCN)c3ncc(C)n3c2c1 (2.5 µM)	inactive: 0	inactive: 0	inactive: 0	inactive: 0	inactive: 0	inactive: 0	inactive: 0	inactive: 0	inactive: 0	inactive: 0	inactive: 0	inactive: 0	inactive: 0	inactive: 0	inactive: 0	inactive: 0	inactive: 0	inactive: 0	0	0
COc1cc2nccc(Oc3ccc(NC(=O)NC4CC4)c(Cl)c3)c2cc1C(N)=O [Lenvatinib (mesylate)] (10 µM)	inactive: 0	inactive: 0	inactive: 0	inactive: 0	inactive: 0	inactive: 0	inactive: 0	inactive: 0	inactive: 0	inactive: 0	inactive: 0	inactive: 0	inactive: 0	inactive: 0	inactive: 0	inactive: 0	inactive: 0	inactive: 0	0	0
Nc1nc2ccc(Cl)cc2c2nc(-c3ccco3)nn12 (10 µM)	inactive: 0	inactive: 0	inactive: 0	inactive: 0	inactive: 0	inactive: 0	inactive: 0	inactive: 0	inactive: 0	inactive: 0	inactive: 0	inactive: 0	inactive: 0	inactive: 0	inactive: 0	inactive: 0	inactive: 0	inactive: 0	0	0
CN1C(=O)N[C@H](Cc2c[nH]c3c(Cl)cccc23)C1=O [Necrostatin 2] (10 µM)	inactive: 0	inactive: 0	inactive: 0	inactive: 0	inactive: 0	inactive: 0	inactive: 0	inactive: 0	inactive: 0	inactive: 0	inactive: 0	inactive: 0	inactive: 0	inactive: 0	inactive: 0	inactive: 0	inactive: 0	inactive: 0	0	0
CC(C)(C)c1nc(-c2cccc(NS(=O)(=O)c3c(F)cccc3F)c2F)c(-c2ccnc(N)n2)s1 [Dabrafenib] (2.5 µM)	inactive: 0	inactive: 0	inactive: 0	inactive: 0	inactive: 0	inactive: 0	inactive: 0	inactive: 0	inactive: 0	inactive: 0	inactive: 0	inactive: 0	inactive: 0	inactive: 0	inactive: 0	inactive: 0	inactive: 0	inactive: 0	0	0
CN1CCN(c2cccc(Nc3nc4c(-c5ccc(S(C)(=O)=O)cc5)cccn4n3)c2)CC1 (10 µM)	inactive: 0	inactive: 0	inactive: 0	inactive: 0	inactive: 0	inactive: 0	inactive: 0	inactive: 0	inactive: 0	inactive: 0	inactive: 0	inactive: 0	inactive: 0	inactive: 0	inactive: 0	inactive: 0	inactive: 0	inactive: 0	0	0
C[C@@H]1CC[C@@H](Nc2nc(NC(C)(C)C)ncc2C(N)=O)C[C@H]1O (10 µM)	inactive: 0	inactive: 0	inactive: 0	inactive: 0	inactive: 0	inactive: 0	inactive: 0	inactive: 0	inactive: 0	inactive: 0	inactive: 0	inactive: 0	inactive: 0	inactive: 0	inactive: 0	inactive: 0	inactive: 0	inactive: 0	0	0
CCc1cc2c(cc1N1CCC(N3CCOCC3)CC1)C(C)(C)c1[nH]c3cc(C#N)ccc3c1C2=O [Alectinib] (10 µM)	inactive: 0	inactive: 0	inactive: 0	inactive: 0	inactive: 0	inactive: 0	inactive: 0	inactive: 0	inactive: 0	inactive: 0	inactive: 0	inactive: 0	inactive: 0	inactive: 0	inactive: 0	inactive: 0	inactive: 0	inactive: 0	0	0
NS(=O)(=O)c1ccc(-n2nc(C(F)(F)F)cc2-c2ccc(Cl)cc2)cc1 (10 µM)	inactive: 0	inactive: 0	inactive: 0	inactive: 0	inactive: 0	inactive: 0	inactive: 0	inactive: 0	inactive: 0	inactive: 0	inactive: 0	inactive: 0	inactive: 0	inactive: 0	inactive: 0	inactive: 0	inactive: 0	inactive: 0	0	0
Cn1ncc(Cl)c1-c1cc(C(=O)N[C@H](CN)Cc2ccc(F)c(F)c2)oc1Cl [Uprosertib] (10 µM)	inactive: 0	inactive: 0	inactive: 0	inactive: 0	inactive: 0	inactive: 0	inactive: 0	inactive: 0	inactive: 0	inactive: 0	inactive: 0	inactive: 0	inactive: 0	inactive: 0	inactive: 0	inactive: 0	inactive: 0	inactive: 0	0	0
OCCn1cc(-c2ccc3c(c2)CC/C3=N\O)c(-c2ccncc2)n1 (10 µM)	inactive: 0	inactive: 0	inactive: 0	inactive: 0	inactive: 0	inactive: 0	inactive: 0	inactive: 0	inactive: 0	inactive: 0	inactive: 0	inactive: 0	inactive: 0	inactive: 0	inactive: 0	inactive: 0	inactive: 0	inactive: 0	0	0
Nc1ccc(-c2cnc(N)c(-c3ccc(Cl)cc3)c2)cn1 (10 µM)	inactive: 0	inactive: 0	inactive: 0	inactive: 0	inactive: 0	inactive: 0	inactive: 0	inactive: 0	inactive: 0	inactive: 0	inactive: 0	inactive: 0	inactive: 0	inactive: 0	inactive: 0	inactive: 0	inactive: 0	inactive: 0	0	0
Cc1nc2sccn2c(=O)c1CCN1CCC(=C(c2ccccc2)c2ccc(F)cc2)CC1 (10 µM)	inactive: 0	inactive: 0	inactive: 0	inactive: 0	inactive: 0	inactive: 0	inactive: 0	inactive: 0	inactive: 0	inactive: 0	inactive: 0	inactive: 0	inactive: 0	inactive: 0	inactive: 0	inactive: 0	inactive: 0	inactive: 0	0	0
CNc1nc(Nc2ccc(C(=O)N3CCOCC3)cc2OC)nc2[nH]cc(Cl)c12 (2.5 µM)	inactive: 0	inactive: 0	inactive: 0	inactive: 0	inactive: 0	inactive: 0	inactive: 0	inactive: 0	inactive: 0	inactive: 0	inactive: 0	inactive: 0	inactive: 0	inactive: 0	inactive: 0	inactive: 0	inactive: 0	inactive: 0	0	0
COc1cc2ncnc(Nc3ccc(Cl)cc3F)c2cc1OC (10 µM)	inactive: 0	inactive: 0	inactive: 0	inactive: 0	inactive: 0	inactive: 0	inactive: 0	inactive: 0	inactive: 0	inactive: 0	inactive: 0	inactive: 0	inactive: 0	inactive: 0	inactive: 0	inactive: 0	inactive: 0	inactive: 0	0	0
Cc1ccc(CNc2ncnc3ccc(-c4ccc(CO)o4)cc23)o1 (10 µM)	inactive: 0	inactive: 0	inactive: 0	inactive: 0	inactive: 0	inactive: 0	inactive: 0	inactive: 0	inactive: 0	inactive: 0	inactive: 0	inactive: 0	inactive: 0	inactive: 0	inactive: 0	inactive: 0	inactive: 0	inactive: 0	0	0
NCCNS(=O)(=O)c1cccc2c(Cl)cccc12 [A-3 (hydrochloride)] (10 µM)	inactive: 0	inactive: 0	inactive: 0	inactive: 0	inactive: 0	inactive: 0	inactive: 0	inactive: 0	inactive: 0	inactive: 0	inactive: 0	inactive: 0	inactive: 0	inactive: 0	inactive: 0	inactive: 0	inactive: 0	inactive: 0	0	0
COc1cc2c(cc1OC)CN(S(=O)(=O)c1ccc(OC)c(N3CCN(C(=O)c4ccc(F)cc4C(F)(F)F)CC3)c1)CC2 (10 µM)	inactive: 0	inactive: 0	inactive: 0	inactive: 0	inactive: 0	inactive: 0	inactive: 0	inactive: 0	inactive: 0	inactive: 0	inactive: 0	inactive: 0	inactive: 0	inactive: 0	inactive: 0	inactive: 0	inactive: 0	inactive: 0	0	0
Cn1cc(-c2ccc3c(c2)CCN3C(=O)Cc2cccc(C(F)(F)F)c2)c2c(N)ncnc21 (2.5 µM)	inactive: 0	inactive: 0	inactive: 0	inactive: 0	inactive: 0	inactive: 0	inactive: 0	inactive: 0	inactive: 0	inactive: 0	inactive: 0	inactive: 0	inactive: 0	inactive: 0	inactive: 0	inactive: 0	inactive: 0	inactive: 0	0	0

2 entries from above, in CSV form:
SMILES,kinase-Nluc reporter destabilization hit call (RET),kinase-Nluc reporter destabilization hit call [1],kinase-Nluc reporter destabilization hit call (RIOK1),kinase-Nluc reporter destabilization hit call (RIPK1),kinase-Nluc reporter destabilization hit call (RIPK2),kinase-Nluc reporter destabilization hit call (ROR2),kinase-Nluc reporter destabilization hit call (RPS6KA1),kinase-Nluc reporter destabilization hit call (SPHK1),kinase-Nluc reporter destabilization hit call (SRC),kinase-Nluc reporter destabilization hit call (STK24),kinase-Nluc reporter destabilization hit call (STK38),kinase-Nluc reporter destabilization hit call (SYK),kinase-Nluc reporter destabilization hit call (TEC),kinase-Nluc reporter destabilization hit call (TYK2),kinase-Nluc reporter destabilization hit call (ULK3),kinase-Nluc reporter destabilization hit call (YES1),kinase-Nluc reporter destabilization hit call (ZAK),kinase-Nluc reporter destabilization hit call (ZAP70),number of time points (ABL1),number of time points (AKT1)
CC(C)(C)c1nc(-c2cccc(NS(=O)(=O)c3c(F)cccc3F)c2F)c(-c2ccnc(N)n2)s1 [Dabrafenib] (2.5 µM),inactive: 0,inactive: 0,inactive: 0,inactive: 0,inactive: 0,inactive: 0,inactive: 0,inactive: 0,inactive: 0,inactive: 0,inactive: 0,inactive: 0,inactive: 0,inactive: 0,inactive: 0,inactive: 0,inactive: 0,inactive: 0,0,0
CN1CCN(c2cccc(Nc3nc4c(-c5ccc(S(C)(=O)=O)cc5)cccn4n3)c2)CC1 (10 µM),inactive: 0,inactive: 0,inactive: 0,inactive: 0,inactive: 0,inactive: 0,inactive: 0,inactive: 0,inactive: 0,inactive: 0,inactive: 0,inactive: 0,inactive: 0,inactive: 0,inactive: 0,inactive: 0,inactive: 0,inactive: 0,0,0
